No constants are given. Whether binding was seen depends on the method and setting. Binding calls can cover weak binding; strength is not graded here.

Protein sequences, listed by entry. Tags and fused reporters are not part of them. Lines headed by an entry give the natural chain unless they say otherwise; changes in a name come on top.
UniProt Q00987: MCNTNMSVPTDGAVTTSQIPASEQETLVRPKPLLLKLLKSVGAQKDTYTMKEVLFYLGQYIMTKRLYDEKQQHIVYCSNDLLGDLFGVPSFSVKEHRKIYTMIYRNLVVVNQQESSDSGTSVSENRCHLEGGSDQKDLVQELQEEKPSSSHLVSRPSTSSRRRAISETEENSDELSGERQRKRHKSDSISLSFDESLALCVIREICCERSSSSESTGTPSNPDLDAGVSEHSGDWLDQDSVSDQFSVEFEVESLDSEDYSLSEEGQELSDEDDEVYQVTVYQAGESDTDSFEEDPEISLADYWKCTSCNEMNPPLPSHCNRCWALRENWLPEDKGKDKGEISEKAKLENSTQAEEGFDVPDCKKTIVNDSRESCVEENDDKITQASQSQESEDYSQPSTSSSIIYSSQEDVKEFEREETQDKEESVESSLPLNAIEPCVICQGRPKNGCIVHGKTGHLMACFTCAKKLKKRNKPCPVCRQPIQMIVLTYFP
UniProt Q5XUX0: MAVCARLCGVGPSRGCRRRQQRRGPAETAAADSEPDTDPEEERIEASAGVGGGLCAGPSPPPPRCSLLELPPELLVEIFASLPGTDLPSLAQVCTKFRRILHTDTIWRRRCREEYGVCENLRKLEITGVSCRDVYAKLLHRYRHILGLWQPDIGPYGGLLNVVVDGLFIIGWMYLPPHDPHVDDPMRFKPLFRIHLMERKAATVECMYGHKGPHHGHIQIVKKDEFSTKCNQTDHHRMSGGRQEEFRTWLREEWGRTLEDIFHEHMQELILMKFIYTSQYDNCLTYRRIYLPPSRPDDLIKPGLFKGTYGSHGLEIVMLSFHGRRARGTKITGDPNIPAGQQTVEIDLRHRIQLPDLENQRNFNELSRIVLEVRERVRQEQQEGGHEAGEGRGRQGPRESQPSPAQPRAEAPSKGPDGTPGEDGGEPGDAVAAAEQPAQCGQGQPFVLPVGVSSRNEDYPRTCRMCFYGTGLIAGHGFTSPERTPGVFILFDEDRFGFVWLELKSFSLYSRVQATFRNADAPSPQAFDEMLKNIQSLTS

For 1 substance, binding results are on record in publication PMC10917549.

In this test the target is MDM2 (UniProt Q00987). As to the kind of experiment: two-hybrid; Y2H Gold yeast; MDM2 in pGBKT7 as bait, FBXO31 or F-box-mut in PGADT7 as prey; growth and blue colour of colonies on TDO (SD/-Leu/-Trp/-His) and QDO (SD/-Leu/-Trp/-His/-Ade) after three days.

In the case of “FBXO31 F-box domain mutant (from UniProt Q5XUX0)”, the binding result was “binds”.
